ClpP1P2: 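Protease assay of ClpP1P2, read by the AMC dye that it sets free. Target: ClpP1P2, Mycobacterium tuberculosis (UniProt P9WPC5 and UniProt P9WPC3). Concentration: 50 µM. Direction is inferred from only a few compounds that gave an IC50; most scored high, so higher reads as stronger inhibition. Most other retested compounds had strongly negative values. About 69,000 compounds were tested under these conditions; 0.015% (about 10) showed 50% or more at least once.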
CoaBC: 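Enzyme assay of CoaBC with a phosphate dye (Biomol Green) read at 650 nm. Target: Coenzyme A biosynthesis protein CoaBC, Mycobacterium tuberculosis (UniProt P9WNZ1). Compounds at 30 µM. Higher reads as stronger inhibition, judged from the few compounds that gave an IC50. Most strong results did not repeat in a second test. About 67,000 compounds were tested under these conditions; 0.06% (about 40) showed 50% or more at least once.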
PfKRS1: 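Lysine-tRNA ligase, Plasmodium falciparum 3D7 (UniProt Q8IDJ8). Enzyme assay of the cytosolic lysyl-tRNA synthetase in 384-well plates, read by luminescence. Tested at 30 µM. Higher reads as stronger inhibition, judged from the few compounds that gave an IC50. Of about 69,000 compounds tested this way, about 49 (0.071%) reached 50% or more in at least one test.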
TcHisRS: 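Enzyme assay of histidyl-tRNA synthetase; the read-out is not stated. Target: Histidine-tRNA ligase, Trypanosoma cruzi CL Brener (UniProt Q4DA54). Compounds at 30 µM. Higher reads as stronger inhibition (inferred: compounds with an IC50 in retests scored well above the rest). Of about 69,000 compounds tested this way, about 31 (0.045%) reached 50% or more in at least one test.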
Pks13 thioesterase: 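Polyketide synthase Pks13, Mycobacterium tuberculosis (UniProt I6X8D2). Enzyme assay of the thioesterase domain of polyketide synthase 13; the read-out is not stated. Tested at 30 µM. The record gives no direction; the compounds picked for IC50 retests had high values, so higher reads as stronger inhibition. About 67,000 compounds were tested under these conditions; 0.46% (about 300) showed 50% or more at least once.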

Chains of the proteins cited; added tags and fusions are not shown. Residues count along the entry.
UniProt P9WPC5, whole entry: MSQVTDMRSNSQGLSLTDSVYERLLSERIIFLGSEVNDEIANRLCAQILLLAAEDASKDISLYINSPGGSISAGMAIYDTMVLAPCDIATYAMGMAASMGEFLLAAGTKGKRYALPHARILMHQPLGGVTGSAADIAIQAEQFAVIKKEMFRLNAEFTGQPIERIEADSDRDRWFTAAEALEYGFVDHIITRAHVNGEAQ
UniProt P9WPC3, whole entry partner: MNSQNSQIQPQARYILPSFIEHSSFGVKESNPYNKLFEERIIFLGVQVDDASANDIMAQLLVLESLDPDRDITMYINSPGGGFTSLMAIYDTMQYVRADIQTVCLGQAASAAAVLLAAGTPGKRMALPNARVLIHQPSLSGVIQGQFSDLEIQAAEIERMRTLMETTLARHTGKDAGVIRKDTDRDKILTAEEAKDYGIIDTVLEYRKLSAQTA
UniProt P9WNZ1, whole entry: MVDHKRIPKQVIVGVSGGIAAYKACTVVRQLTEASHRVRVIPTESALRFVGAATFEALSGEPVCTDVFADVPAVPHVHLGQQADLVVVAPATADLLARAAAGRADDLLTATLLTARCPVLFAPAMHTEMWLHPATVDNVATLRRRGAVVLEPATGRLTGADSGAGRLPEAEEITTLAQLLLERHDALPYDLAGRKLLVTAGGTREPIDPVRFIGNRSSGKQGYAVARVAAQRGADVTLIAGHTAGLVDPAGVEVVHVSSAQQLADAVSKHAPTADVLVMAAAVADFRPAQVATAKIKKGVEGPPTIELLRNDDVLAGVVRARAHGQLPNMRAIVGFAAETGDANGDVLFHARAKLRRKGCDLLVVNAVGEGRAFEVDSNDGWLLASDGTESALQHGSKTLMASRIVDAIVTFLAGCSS
UniProt Q8IDJ8, 1-583: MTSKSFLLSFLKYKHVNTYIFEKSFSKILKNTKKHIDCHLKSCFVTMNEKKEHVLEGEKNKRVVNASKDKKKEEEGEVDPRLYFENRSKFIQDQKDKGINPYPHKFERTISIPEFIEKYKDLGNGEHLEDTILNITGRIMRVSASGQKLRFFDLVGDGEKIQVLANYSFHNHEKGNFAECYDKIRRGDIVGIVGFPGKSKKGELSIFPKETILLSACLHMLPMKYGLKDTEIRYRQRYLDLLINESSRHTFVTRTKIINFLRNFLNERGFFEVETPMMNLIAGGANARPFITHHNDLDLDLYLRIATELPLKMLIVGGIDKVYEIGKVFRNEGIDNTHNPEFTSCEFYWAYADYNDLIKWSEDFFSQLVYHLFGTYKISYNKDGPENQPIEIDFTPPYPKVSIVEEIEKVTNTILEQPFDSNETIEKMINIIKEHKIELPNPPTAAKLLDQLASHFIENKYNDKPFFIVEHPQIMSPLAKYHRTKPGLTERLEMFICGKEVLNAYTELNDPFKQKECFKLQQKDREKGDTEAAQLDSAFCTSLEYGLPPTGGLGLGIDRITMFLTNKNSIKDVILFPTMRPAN
UniProt Q4DA54, 1-478: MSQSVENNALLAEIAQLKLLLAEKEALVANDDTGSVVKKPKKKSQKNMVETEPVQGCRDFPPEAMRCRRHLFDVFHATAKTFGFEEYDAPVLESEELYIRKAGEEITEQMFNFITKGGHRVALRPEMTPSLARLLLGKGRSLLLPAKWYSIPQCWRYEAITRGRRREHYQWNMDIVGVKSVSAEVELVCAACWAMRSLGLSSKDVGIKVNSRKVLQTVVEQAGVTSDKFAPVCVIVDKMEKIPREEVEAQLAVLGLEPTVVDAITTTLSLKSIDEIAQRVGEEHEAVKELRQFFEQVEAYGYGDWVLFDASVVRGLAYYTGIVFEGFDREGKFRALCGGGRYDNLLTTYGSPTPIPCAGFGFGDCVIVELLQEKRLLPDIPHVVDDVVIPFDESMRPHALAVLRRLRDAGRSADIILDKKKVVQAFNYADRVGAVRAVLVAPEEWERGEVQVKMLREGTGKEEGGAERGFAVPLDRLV
UniProt I6X8D2, whole entry: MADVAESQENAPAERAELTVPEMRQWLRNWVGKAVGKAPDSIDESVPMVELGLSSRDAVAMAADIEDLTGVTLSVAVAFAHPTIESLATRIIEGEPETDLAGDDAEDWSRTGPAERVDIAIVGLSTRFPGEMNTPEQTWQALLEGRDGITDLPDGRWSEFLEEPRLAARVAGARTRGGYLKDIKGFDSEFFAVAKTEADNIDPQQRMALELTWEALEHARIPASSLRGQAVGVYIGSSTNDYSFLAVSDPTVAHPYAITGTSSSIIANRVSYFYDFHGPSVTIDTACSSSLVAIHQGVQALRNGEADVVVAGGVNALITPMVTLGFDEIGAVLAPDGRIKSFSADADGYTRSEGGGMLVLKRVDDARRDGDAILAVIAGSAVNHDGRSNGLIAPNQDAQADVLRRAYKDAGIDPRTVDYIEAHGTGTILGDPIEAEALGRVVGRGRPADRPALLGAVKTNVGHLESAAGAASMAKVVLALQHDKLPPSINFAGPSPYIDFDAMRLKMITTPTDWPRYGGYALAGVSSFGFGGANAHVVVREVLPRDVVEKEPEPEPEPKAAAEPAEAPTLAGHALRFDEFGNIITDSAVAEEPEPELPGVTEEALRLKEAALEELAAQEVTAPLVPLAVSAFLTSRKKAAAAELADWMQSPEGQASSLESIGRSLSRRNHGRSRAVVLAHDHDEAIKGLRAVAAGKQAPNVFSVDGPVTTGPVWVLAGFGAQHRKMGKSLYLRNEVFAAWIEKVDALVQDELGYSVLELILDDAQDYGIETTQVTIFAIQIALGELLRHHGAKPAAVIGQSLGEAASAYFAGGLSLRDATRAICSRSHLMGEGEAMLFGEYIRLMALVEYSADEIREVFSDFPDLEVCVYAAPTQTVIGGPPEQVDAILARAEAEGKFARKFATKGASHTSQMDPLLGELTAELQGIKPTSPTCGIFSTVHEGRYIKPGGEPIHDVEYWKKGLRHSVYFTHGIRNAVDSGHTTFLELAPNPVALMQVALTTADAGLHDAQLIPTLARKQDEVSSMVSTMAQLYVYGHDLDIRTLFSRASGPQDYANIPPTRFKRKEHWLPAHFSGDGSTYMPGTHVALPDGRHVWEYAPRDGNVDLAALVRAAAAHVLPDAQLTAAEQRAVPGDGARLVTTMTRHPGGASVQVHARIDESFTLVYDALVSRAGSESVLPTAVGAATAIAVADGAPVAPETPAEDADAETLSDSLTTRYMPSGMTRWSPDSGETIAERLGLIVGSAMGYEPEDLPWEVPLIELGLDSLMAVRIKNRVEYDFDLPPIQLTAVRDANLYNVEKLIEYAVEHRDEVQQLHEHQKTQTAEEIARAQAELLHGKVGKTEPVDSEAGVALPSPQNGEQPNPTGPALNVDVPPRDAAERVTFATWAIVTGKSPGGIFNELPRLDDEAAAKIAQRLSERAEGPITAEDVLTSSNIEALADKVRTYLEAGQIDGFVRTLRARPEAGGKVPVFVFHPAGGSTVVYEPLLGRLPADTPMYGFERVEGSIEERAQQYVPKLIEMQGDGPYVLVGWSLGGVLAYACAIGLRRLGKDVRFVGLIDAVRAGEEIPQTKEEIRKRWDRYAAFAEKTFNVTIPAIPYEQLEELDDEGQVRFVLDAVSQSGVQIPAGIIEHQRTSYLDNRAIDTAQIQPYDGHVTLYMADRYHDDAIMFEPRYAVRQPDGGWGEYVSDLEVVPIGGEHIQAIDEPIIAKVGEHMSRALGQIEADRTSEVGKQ

Each number is a percent effect as filed. The record does not define 0% and 100%; most values in the screen are far below 50% and negative numbers occur (in some assays of this library far below -100). The compounds are a random part of those screened.

CN1C(=O)CC(C(=O)O)C12CCN(c1ccc3cccc(Cl)c3n1)CC2 (stereo unspecified) gave ClpP1P2: -21.69%; CoaBC: 8.009%; PfKRS1: 6.601%; TcHisRS: 5.6%; Pks13 thioesterase: 21.46%.
Cc1cc(CN(C)C(=O)NCc2ccco2)no1 gave ClpP1P2: 6.845%; CoaBC: 0.8264%; PfKRS1: 7.93%; TcHisRS: 3.804%; Pks13 thioesterase: -54.5%.
CC(C)N1CCC2(CC1)CC(CC(N)=O)c1ccc(F)cc12 (stereo unspecified) gave ClpP1P2: 17.33%; CoaBC: 8.811%; PfKRS1: 2.617%; TcHisRS: 0%; Pks13 thioesterase: -25.69%.
CC1CN(CCc2ccccn2)CCN1c1ccc2nncn2n1 (stereo unspecified) gave ClpP1P2: -11.61%; CoaBC: 0%; PfKRS1: 1.535%; TcHisRS: 5.714%; Pks13 thioesterase: -4.886%.
Cc1nn(C)c2c(N3CCSCC3)nc(C3CC3)nc12 gave ClpP1P2: 14.05%; CoaBC: 1.235%; PfKRS1: 3.914%; TcHisRS: 5.699%; Pks13 thioesterase: -14.44%.
COCCOc1ccc(NC(=O)N(C(C)C)C2CC2)cn1 gave ClpP1P2: -0.7766%; CoaBC: 0.9938%; PfKRS1: 2.159%; TcHisRS: -2.564%; Pks13 thioesterase: -1.863%.
Cn1nc(CN2CCCCC(N)C2)c2c(Cl)cccc21 (stereo unspecified) gave ClpP1P2: -9.709%; CoaBC: 4.37%; PfKRS1: 13.86%; TcHisRS: -2.041%; Pks13 thioesterase: -18%.
CCOC(=O)N1CCCn2nc(C(=O)NCCN(C)C)cc2C1 gave ClpP1P2: -4.06%; CoaBC: 0.8485%; PfKRS1: 0.6825%; TcHisRS: 3.061%; Pks13 thioesterase: -3.789%.
Cc1cccc(CN2CC3(CCN(C4CCOC4)CC3)OCC2=O)n1 (stereo unspecified) gave ClpP1P2: -7.331%; CoaBC: -10.86%; PfKRS1: 5.278%; TcHisRS: 8.411%; Pks13 thioesterase: -12.69%.
COCC(=O)N1CCN2C(=O)OC[C@H]2C1 gave ClpP1P2: -4.564%; CoaBC: 9.234%; PfKRS1: 3.146%; TcHisRS: 3.483%; Pks13 thioesterase: 12.56%.
CC(C)CNC(=O)c1cc(C2CC2)nc2c1c(C1CCCN1)nn2C (stereo unspecified) gave ClpP1P2: 5.822%; CoaBC: 6.842%; PfKRS1: 6.419%; TcHisRS: -1.775%; Pks13 thioesterase: -19.67%.
Cc1cccc(NC(=O)c2sccc2C)n1 gave ClpP1P2: -1.797%; CoaBC: -0.135%; PfKRS1: 0.08125%; TcHisRS: -2.174%.
CN(C)CC1(O)CCCN(c2noc(-c3ccccc3)n2)CC1 (stereo unspecified) gave ClpP1P2: 3.273%; CoaBC: -10%; PfKRS1: 0.09823%; TcHisRS: -2.703%; Pks13 thioesterase: 5.65%.
CCc1cc(C(=O)N2CCCC(Cc3ccc(NC)nn3)C2)on1 (stereo unspecified) gave ClpP1P2: 14.39%; CoaBC: -0.2427%; PfKRS1: 0.1352%; TcHisRS: 3.297%; Pks13 thioesterase: -2.322%.
CCN(CC)S(=O)(=O)N(C)Cc1ccc2c(c1)OCCO2 gave ClpP1P2: 7.1%; CoaBC: -1.434%; PfKRS1: 5.284%; TcHisRS: 5.714%; Pks13 thioesterase: -15.35%.
O=C(c1ccc(Cl)s1)N1CCC2(CNS(=O)(=O)c3cnccc3O2)C1 (stereo unspecified) gave ClpP1P2: 16.58%; CoaBC: 4.737%; PfKRS1: 0.02334%; TcHisRS: 0.5917%; Pks13 thioesterase: -16.83%.
CN1CCN(C(=O)COCc2nc(-c3ccncc3)no2)CC1 gave ClpP1P2: -4.948%; CoaBC: -2.641%; PfKRS1: -2.311%; TcHisRS: 0.8772%; Pks13 thioesterase: -19.06%.
Cc1cc(O)c(OCC(=O)Nc2nc3c(s2)CCCC3)cn1 gave ClpP1P2: -21.8%; CoaBC: 3.418%; PfKRS1: 1.227%; TcHisRS: 2.484%; Pks13 thioesterase: -1.662%.
O=C1CN(Cc2nnc(-c3ccccc3Br)o2)CCN1 gave ClpP1P2: -4.517%; CoaBC: -8.439%; PfKRS1: 5.804%; TcHisRS: 2.439%.
Cc1ccc(N2CCC(C(O)c3cccs3)CC2)nn1 (stereo unspecified) gave ClpP1P2: 4.409%; CoaBC: -4.268%; PfKRS1: 4.019%; TcHisRS: 7.831%; Pks13 thioesterase: 8.201%.
COc1ccccc1[C@@H]1CN(Cc2c(C)noc2C)C[C@H]1C(=O)O gave ClpP1P2: -6.469%; CoaBC: 1.242%; PfKRS1: 1.847%; TcHisRS: -4.615%; Pks13 thioesterase: -34.85%.
Cc1nc2c(c(NCc3cc4ccccc4s3)n1)CCNCC2 gave ClpP1P2: -7.885%; CoaBC: -22.33%; PfKRS1: 3.647%; TcHisRS: 12.92%; Pks13 thioesterase: -31.82%.
Cc1ccc(C(=O)N2CCn3c(COCC4CC4)cnc3C2C)nc1 (stereo unspecified) gave ClpP1P2: -6.969%; CoaBC: -0.8403%; PfKRS1: 7.802%; TcHisRS: -9.091%; Pks13 thioesterase: -5.43%.
Cc1c(C[S+](C)[O-])cccc1NC(=O)c1cc(Cl)ccn1 (stereo unspecified) gave ClpP1P2: 7.262%; CoaBC: 6.04%; PfKRS1: 3.521%; TcHisRS: 8.247%; Pks13 thioesterase: -12.28%.
O=C(CC1CC1)N[C@@H]1CN(C(=O)c2cccs2)C[C@@H]2CCCO[C@@H]21 gave ClpP1P2: -10.92%; CoaBC: 3.96%; PfKRS1: 1.969%; TcHisRS: 0%; Pks13 thioesterase: -14.26%.
CC(C)c1nsc(N2CCSCC2)n1 gave ClpP1P2: -5.278%; CoaBC: 5.443%; PfKRS1: 5.495%; TcHisRS: -2.439%; Pks13 thioesterase: -15.97%.

The last 2 entries again:

{"compound": "O=C(CC1CC1)N[C@@H]1CN(C(=O)c2cccs2)C[C@@H]2CCCO[C@@H]21", "ClpP1P2": -10.92, "CoaBC": 3.96, "PfKRS1": 1.969, "TcHisRS": 0, "Pks13 thioesterase": -14.26}
{"compound": "CC(C)c1nsc(N2CCSCC2)n1", "ClpP1P2": -5.278, "CoaBC": 5.443, "PfKRS1": 5.495, "TcHisRS": -2.439, "Pks13 thioesterase": -15.97}

The values are deposited in ChEMBL (CHEMBL3988442, “University of Dundee, Small-Polar-MMV Screening Library” (2021)).